Source: patent US20260022160A1 (AFFYXELL THERAPEUTICS, published 2026)
These are yes or no findings as the source states them, for the method shown. Some binding calls cover weakened binding; strength is not graded here.

B1: stefin A protein variant clone 296 (designed binder)
chain: MIPGGLSEAKPATPEIQEIVDKVKPQLEEKTGETYGKLEAVQYKTQVVNENVYRVTQGTNYYIKVRAGDNKYMHLKVFKSLKYRHRLTYEEDLVLTGYQVDKNKDDELTGF
B2: stefin A protein variant clone 297 (designed binder)
chain: MIPGGLSEAKPATPEIQEIVDKVKPQLEEKTGETYGKLEAVQYKTQVVWHKIVTQWPGTNYYIKVRAGDNKYMHLKVFKSLYAQRGEVYFEDLVLTGYQVDKNKDDELTGF
B3: stefin A protein variant clone 298 (designed binder)
chain: MIPGGLSEAKPATPEIQEIVDKVKPQLEEKTGETYGKLEAVQYKTQVVHYRIITHWEGTNYYIKVRAGDNKYMHLKVFKSLVRAFLYYKDEDLVLTGYQVDKNKDDELTGF
B4: stefin A protein variant clone 299 (designed binder)
chain: MIPGGLSEAKPATPEIQEIVDKVKPQLEEKTGETYGKLEAVQYKTQVVLVFDASTSAGTNYYIKVRAGDNKYMHLKVFKSLPWEFRGDHKEDLVLTGYQVDKNKDDELTGF
B5: stefin A protein variant clone 300 (designed binder)
chain: MIPGGLSEAKPATPEIQEIVDKVKPQLEEKTGETYGKLEAVQYKTQVVQYAEFLEHIGTNYYIKVRAGDNKYMHLKVFKSLGWSHYFQYLEDLVLTGYQVDKNKDDELTGF
B6: stefin A protein variant clone 301 (designed binder)
chain: MIPGGLSEAKPATPEIQEIVDKVKPQLEEKTGETYGKLEAVQYKTQVVGNVQEDWHIGTNYYIKVRAGDNKYMHLKVFKSLFSEDLTLNGEDLVLTGYQVDKNKDDELTGF
B7: stefin A protein variant clone 302 (designed binder)
chain: MIPGGLSEAKPATPEIQEIVDKVKPQLEEKTGETYGKLEAVQYKTQVVGWSASYPESGTNYYIKVRAGDNKYMHLKVFKSLTQWEFIEWPEDLVLTGYQVDKNKDDELTGF
B8: stefin A protein variant clone 303 (designed binder)
chain: MIPGGLSEAKPATPEIQEIVDKVKPQLEEKTGETYGKLEAVQYKTQVVYQFEHISYGGTNYYIKVRAGDNKYMHLKVFKSLFTYRLPQHREDLVLTGYQVDKNKDDELTGF
B9: stefin A protein variant clone 304 (designed binder)
chain: MIPGGLSEAKPATPEIQEIVDKVKPQLEEKTGETYGKLEAVQYKTQVVAWITPVNVLGTNYYIKVRAGDNKYMHLKVFKSLDEIFHGAYNEDLVLTGYQVDKNKDDELTGF
B10: stefin A protein variant clone 305 (designed binder)
chain: MIPGGLSEAKPATPEIQEIVDKVKPQLEEKTGETYGKLEAVQYKTQVVESYAAIFWGGTNYYIKVRAGDNKYMHLKVFKSLWGEIQHWRQEDLVLTGYQVDKNKDDELTGF
B11: stefin A protein variant clone 306 (designed binder)
chain: MIPGGLSEAKPATPEIQEIVDKVKPQLEEKTGETYGKLEAVQYKTQVVRVWPWTWDRGTNYYIKVRAGDNKYMHLKVFKSLEQWLPNPYFEDLVLTGYQVDKNKDDELTGF
B12: stefin A protein variant clone 307 (designed binder)
chain: MIPGGLSEAKPATPEIQEIVDKVKPQLEEKTGETYGKLEAVQYKTQVVQVKKWWEYFVTNYYIKVRAGDNKYMHLKVFKSLQLLSHQWTEEDLVLTGYQVDKNKDDELTGF
B13: stefin A protein variant clone 308 (designed binder)
chain: MIPGGLSEAKPATPEIQEIVDKVKPQLEEKTGETYGKLEAVQYKTQVVIGQISEQQWGTNYYIKVRAGDNKYMHLKVFKSLHRYWTRDVTEDLVLTGYQVDKNKDDELTGF
B14: stefin A protein variant clone 309 (designed binder)
chain: MIPGGLSEAKPATPEIQEIVDKVKPQLEEKTGETYGKLEAVQYKTQVVAFHKLGWILGTNYYIKVRAGDNKYMHLKVFKSLGDESHKWHKEDLVLTGYQVDKNKDDELTGF
B15: stefin A protein variant clone 310 (designed binder)
chain: MIPGGLSEAKPATPEIQEIVDKVKPQLEEKTGETYGKLEAVQYKTQVVFKKWWWKYKGTNYYIKVRAGDNKYMHLKVFKSLRVDEHYIQFEDLVLTGYQVDKNKDDELTGF
B16: stefin A protein variant clone 311 (designed binder)
chain: MIPGGLSEAKPATPEIQEIVDKVKPQLEEKTGETYGKLEAVQYKTQVVASQRLWIIYGTNYYIKVRAGDNKYMHLKVFKSLSDWRHHGGWEDLVLTGYQVDKNKDDELTGF
B17: stefin A protein variant clone 312 (designed binder)
chain: MIPGGLSEAKPATPEIQEIVDKVKPQLEEKTGETYGKLEAVQYKTQVVQRETHILWSGTNYYIKVRAGDNKYMHLKVFKSLWFDNLHNNFEDLVLTGYQVDKNKDDELTGF
B18: stefin A protein variant clone 313 (designed binder)
chain: MIPGGLSEAKPATPEIQEIVDKVKPQLEEKTGETYGKLEAVQYKTQVVGQYWFWAPGGTNYYIKVRAGDNKYMHLKVFKSLPSSGGGPKWEDLVLTGYQVDKNKDDELTGF
B19: stefin A protein variant clone 314 (designed binder)
chain: MIPGGLSEAKPATPEIQEIVDKVKPQLEEKTGETYGKLEAVQYKTQVVRDWAYYIYFGTNYYIKVRAGDNKYMHLKVFKSLRSDTLHYWNEDLVLTGYQVDKNKDDELTGF
B20: stefin A protein variant clone 315 (designed binder)
chain: MIPGGLSEAKPATPEIQEIVDKVKPQLEEKTGETYGKLEAVQYKTQVVIGYKLNYIWGTNYYIKVRAGDNKYMHLKVFKSLIQYRWQDRVEDLVLTGYQVDKNKDDELTGF
B21: stefin A protein variant clone 316 (designed binder)
chain: MIPGGLSEAKPATPEIQEIVDKVKPQLEEKTGETYGKLEAVQYKTQVVVSLTEQRWKGTNYYIKVRAGDNKYMHLKVFKSLFQPIKLANAEDLVLTGYQVDKNKDDELTGF
B22: stefin A protein variant clone 317 (designed binder)
chain: MIPGGLSEAKPATPEIQEIVDKVKPQLEEKTGETYGKLEAVQYKTQVVWVSQQHYSHGTNYYIKVRAGDNKYMHLKVFKSLFAFRKYEDREDLVLTGYQVDKNKDDELTGF
B23: stefin A protein variant clone 318 (designed binder)
chain: MIPGGLSEAKPATPEIQEIVDKVKPQLEEKTGETYGKLEAVQYKTQVVDDDNQHYGLGTNYYIKVRAGDNKYMHLKVFKSLLHNWWKGNWEDLVLTGYQVDKNKDDELTGF
B24: stefin A protein variant clone 319 (designed binder)
chain: MIPGGLSEAKPATPEIQEIVDKVKPQLEEKTGETYGKLEAVQYKTQVVPTRWISIYWGTNYYIKVRAGDNKYMHLKVFKSLLNRYYHASIEDLVLTGYQVDKNKDDELTGF
B25: stefin A protein variant clone 320 (designed binder)
chain: MIPGGLSEAKPATPEIQEIVDKVKPQLEEKTGETYGKLEAVQYKTQVVTAFAPNKASGTNYYIKVRAGDNKYMHLKVFKSLRYWAFRYLWEDLVLTGYQVDKNKDDELTGF
B26: stefin A protein variant clone 321 (designed binder)
chain: MIPGGLSEAKPATPEIQEIVDKVKPQLEEKTGETYGKLEAVQYKTQVVHYTDFKWHKGTNYYIKVRAGDNKYMHLKVFKSLPFWANEHGWEDLVLTGYQVDKNKDDELTGF
B27: stefin A protein variant clone 322 (designed binder)
chain: MIPGGLSEAKPATPEIQEIVDKVKPQLEEKTGETYGKLEAVQYKTQVVNKFWSWAPGGTNYYIKVRAGDNKYMHLKVFKSLADSGFNATPEDLVLTGYQVDKNKDDELTGF
B28: stefin A protein variant clone 323 (designed binder)
chain: MIPGGLSEAKPATPEIQEIVDKVKPQLEEKTGETYGKLEAVQYKTQVVELDEPAWDWGTNYYIKVRAGDNKYMHLKVFKSLRQHKKPHPNEDLVLTGYQVDKNKDDELTGF
B29: stefin A protein variant clone 324 (designed binder)
chain: MIPGGLSEAKPATPEIQEIVDKVKPQLEEKTGETYGKLEAVQYKTQVVHEKWGFWELGTNYYIKVRAGDNKYMHLKVFKSLHSHRFHEAHEDLVLTGYQVDKNKDDELTGF
B30: stefin A protein variant clone 325 (designed binder)
chain: MIPGGLSEAKPATPEIQEIVDKVKPQLEEKTGETYGKLEAVQYKTQVVVATADLIKAGTNYYIKVRAGDNKYMHLKVFKSLPWHYPPNKWEDLVLTGYQVDKNKDDELTGF
B31: stefin A protein variant clone 326 (designed binder)
chain: MIPGGLSEAKPATPEIQEIVDKVKPQLEEKTGETYGKLEAVQYKTQVVYYKVISWWHGTNYYIKVRAGDNKYMHLKVFKSLYKTPFPQYTEDLVLTGYQVDKNKDDELTGF
B32: stefin A protein variant clone 327 (designed binder)
chain: MIPGGLSEAKPATPEIQEIVDKVKPQLEEKTGETYGKLEAVQYKTQVVHWHHYDNIIGTNYYIKVRAGDNKYMHLKVFKSLYQLVDLDLDEDLVLTGYQVDKNKDDELTGF
B33: stefin A protein variant clone 328 (designed binder)
chain: MIPGGLSEAKPATPEIQEIVDKVKPQLEEKTGETYGKLEAVQYKTQVVVYKIITFWSGTNYYIKVRAGDNKYMHLKVFKSLEYPPVQQVLEDLVLTGYQVDKNKDDELTGF
B34: stefin A protein variant clone 329 (designed binder)
chain: MIPGGLSEAKPATPEIQEIVDKVKPQLEEKTGETYGKLEAVQYKTQVVGWIQRHNLIGTNYYIKVRAGDNKYMHLKVFKSLYSEPPPVQNEDLVLTGYQVDKNKDDELTGF
B35: stefin A protein variant clone 330 (designed binder)
chain: MIPGGLSEAKPATPEIQEIVDKVKPQLEEKTGETYGKLEAVQYKTQVVKTWEDTVVAGTNYYIKVRAGDNKYMHLKVFKSLEYLYRPLNPEDLVLTGYQVDKNKDDELTGF

These binders were tested against T1, human CD40L (human, UniProt P29965 113-261, limits assumed) (assay: ELISA, bacterial lysate on plate-bound human CD40L, anti-Myc tag detection).
T1 sequence (looked up): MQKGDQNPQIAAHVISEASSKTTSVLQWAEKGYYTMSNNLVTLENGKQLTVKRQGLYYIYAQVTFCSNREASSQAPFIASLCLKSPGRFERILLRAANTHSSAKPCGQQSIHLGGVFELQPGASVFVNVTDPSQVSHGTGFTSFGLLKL

binding, binds:
B1
B2
B3
B4
B5
B6
B7
B8
B9
B10
B11
B12
B13
B14
B15
B16
B17
B18
B19
B20
B21
B22
B23
B24
B25
B26
B27
B28
B29
B30
B31
B32
B33
B34
B35
